{"source": "PubChem BioAssay AID743454 (Peter MacCallum Cancer Centre, 2014)", "aim": "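Knock-downs lowering viability or raising caspase 3/7 activity in vorinostat-treated resistant cells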 (primary screen)", "system": "human HCT116-VR colon cancer cells, selected for vorinostat resistance", "reagents": "siRNA pool against human genes, 40 nM siRNA pool", "duration": "vorinostat for 24 h, read-out about 72 h after transfection", "challenge": "vorinostat at 2.5 µM final", "detection": "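Cell viability by CellTiter-Fluor and caspase 3/7 activity by luminescence, each scaled to mock wells per plate, duplicates averaged, then robust z-scored over all plates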", "scale": "viability robust z-score: higher = more viable cells than screen typical; caspase robust z-score: higher = more caspase 3/7 activity than screen typical", "call rule": "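Hits are knock-downs in viability class RV1/RV2 or caspase class CA1/CA2, excluding ones that killed cells in the no-drug cell-count arm; hits then retested with single siRNAs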", "note": "The whole screen tested about 18,000 reagents; below is a part drawn at random. 450 of all reagents (2.5%) count as active. 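Single biological run; no consistent viability z cut-off exists, so the class columns, not z-scores, define the calls.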"}
{"target gene":"PCBP3","viability hit class":"no change","caspase hit class":"no change","viability robust z-score":-2.24,"caspase robust z-score":2.51,"activity call":"inactive"}
{"target gene":"MAST4","viability hit class":"no change","caspase hit class":"no change","viability robust z-score":1.54,"caspase robust z-score":-0.66,"activity call":"inactive"}
{"target gene":"PTPRH","viability hit class":"no change","caspase hit class":"no change","viability robust z-score":-0.99,"caspase robust z-score":-0.64,"activity call":"inactive"}
{"target gene":"ADHFE1","viability hit class":"no change","caspase hit class":"no change","viability robust z-score":-0.14,"caspase robust z-score":-0.06,"activity call":"inactive"}
{"target gene":"ISL1","viability hit class":"no change","caspase hit class":"no change","viability robust z-score":-0.67,"caspase robust z-score":0.06,"activity call":"inactive"}
{"target gene":"RNF222","viability hit class":"no change","caspase hit class":"no change","viability robust z-score":0.5,"caspase robust z-score":0.17,"activity call":"inactive"}
{"target gene":"CERS1","viability hit class":"no change","caspase hit class":"no change","viability robust z-score":-0.03,"caspase robust z-score":0.02,"activity call":"inactive"}
{"target gene":"NDST1","viability hit class":"no change","caspase hit class":"no change","viability robust z-score":0.84,"caspase robust z-score":-0.34,"activity call":"inactive"}
{"target gene":"PROSER3","viability hit class":"no change","caspase hit class":"no change","viability robust z-score":-0.58,"caspase robust z-score":0.77,"activity call":"inactive"}
{"target gene":"KCNH8","viability hit class":"no change","caspase hit class":"no change","viability robust z-score":-0.04,"caspase robust z-score":0.04,"activity call":"inactive"}
{"target gene":"PCDHGA6","viability hit class":"no change","caspase hit class":"no change","viability robust z-score":-0.35,"caspase robust z-score":0.05,"activity call":"inactive"}
{"target gene":"SMOX","viability hit class":"no change","caspase hit class":"no change","viability robust z-score":1.4,"caspase robust z-score":-0.99,"activity call":"inactive"}
{"target gene":"NUP88","viability hit class":"no change","caspase hit class":"no change","viability robust z-score":-1.1,"caspase robust z-score":1.76,"activity call":"inactive"}
{"target gene":"KIAA1586","viability hit class":"no change","caspase hit class":"no change","viability robust z-score":1.2,"caspase robust z-score":-1.06,"activity call":"inactive"}
{"target gene":"CSRP3","viability hit class":"no change","caspase hit class":"no change","viability robust z-score":0,"caspase robust z-score":-0.28,"activity call":"inactive"}
{"target gene":"CH25H","viability hit class":"no change","caspase hit class":"no change","viability robust z-score":0.44,"caspase robust z-score":-0.62,"activity call":"inactive"}
{"target gene":"PI4K2A","viability hit class":"no change","caspase hit class":"no change","viability robust z-score":1,"caspase robust z-score":-0.92,"activity call":"inactive"}
{"target gene":"CNTN3","viability hit class":"no change","caspase hit class":"no change","viability robust z-score":1.37,"caspase robust z-score":1.54,"activity call":"inactive"}
{"target gene":"NT5M","viability hit class":"no change","caspase hit class":"no change","viability robust z-score":-0.64,"caspase robust z-score":-0.7,"activity call":"inactive"}
{"target gene":"PPP1R2","viability hit class":"no change","caspase hit class":"no change","viability robust z-score":-0.12,"caspase robust z-score":-1,"activity call":"inactive"}
{"target gene":"EIF3G","viability hit class":"no change","caspase hit class":"no change","viability robust z-score":-3.65,"caspase robust z-score":-0.6,"activity call":"inactive"}
{"target gene":"DHRSX","viability hit class":"no change","caspase hit class":"no change","viability robust z-score":0.54,"caspase robust z-score":-0.73,"activity call":"inactive"}
{"target gene":"PLA2G4D","viability hit class":"no change","caspase hit class":"no change","viability robust z-score":0.05,"caspase robust z-score":-0.6,"activity call":"inactive"}
{"target gene":"IFNA17","viability hit class":"no change","caspase hit class":"no change","viability robust z-score":0.17,"caspase robust z-score":-0.28,"activity call":"inactive"}
{"target gene":"ZFPM2","viability hit class":"no change","caspase hit class":"no change","viability robust z-score":-0.32,"caspase robust z-score":0.81,"activity call":"inactive"}
{"target gene":"TTYH3","viability hit class":"no change","caspase hit class":"no change","viability robust z-score":-0.15,"caspase robust z-score":1.27,"activity call":"inactive"}
{"target gene":"CENPO","viability hit class":"no change","caspase hit class":"no change","viability robust z-score":0.57,"caspase robust z-score":0.31,"activity call":"inactive"}
